In US3932633A, “Novel o-triazenobenzamides, in treating aggressive behavior” (Uniroyal Inc., priority 1974, dated 1976):

Experiments:
[1] = tested on: electroshock-induced fighting in mice; assay: Electroshock-induced fighting in mice; type: in vivo, mouse; details: i.p. administration
Text: (§1) The compound of Example 6 was compared with chlorpromazine and chlordiazepoxide for its anti-aggressive activity. Three models of experimentally-induced aggression in rodents were studied (R. D. Sofia, Life Science, 8: 705, 1969).

[2] = tested on: isolation-induced fighting in mice; assay: Isolated fighting mouse (IFM) test / isolated mouse aggression; type: in vivo; details: dose blocking aggression correlated with dose inducing neurotoxicity
Description: *IFM - Isolated fighting mouse test at a dose of 30 mg/kg
intraperitoneally; those compounds which protected at least 40% of the
Two models of aggression are used in the primary screening for neuroleptics, (1) isolation-induced fighting in mice (IFM), and (2) aggression induced in rats by destruction of the septal area (septal rat). Compounds are first submitted, however, to the neuropharmacological profile, a standard procedure (see, e.g., Samuel Irwin, Science, 136, 123 [1962]) employed in screening a compound to determine its usefulness as a central nervous system active compound. Those agents which cause depression over a wide dose range are then submitted to the first anti-aggression screen, the isolation-induced fighting mouse assay.
as §1

Question: For `CN(C)CCCN1c2ccccc2Sc2ccc(Cl)cc21` [Chlorpromazine, chlorpromazine], which “NTD50/ED50, Electroshock-Induced Fighting in Mice” value ([1]; listed as chlorpromazine) is on record?
Answer: The value was “less than one”.

Question: How did the “selectivity in blocking aggression versus chlordiazepoxide” value [2] turn out when `Cc1nc(NN=Nc2ccccc2C(N)=O)sc1C(=O)NCc1ccccc1` [Example 6, 2-[3-(4-methyl-5-(N-benzyl-carbamoyl)-2-thiazolyl)-2(or 1)-triazeno]-benzamide] was run?
Answer: The value was “one thousand times”.

Question: What about the “selectivity in blocking aggression versus chlorpromazine” value [2] of the same compound?
Answer: Its value is “more than two thousand times; also recorded: greater than two thousand times”.

Question: With `CNC1=Nc2ccc(Cl)cc2C(c2ccccc2)=[N+]([O-])C1` [Chlordiazepoxide, chlordiazepoxide] as the compound, how does the “NTD50/ED50, Electroshock-Induced Fighting in Mice” value ([1]; listed as chlordiazepoxide) read?
Answer: The value was “less than one”.

Entries after “also recorded” stand apart in the source; their conditions may differ.
